The record followed here is doi:10.1101/557116 (bioRxiv, 2019).

By UniProt entry, the sequences of proteins in these tests, tags left out. Where a name states a change or a piece, a line headed by the entry shows the natural chain unless it says otherwise. Residues count along the entry.
UniProt P59901, 24-223: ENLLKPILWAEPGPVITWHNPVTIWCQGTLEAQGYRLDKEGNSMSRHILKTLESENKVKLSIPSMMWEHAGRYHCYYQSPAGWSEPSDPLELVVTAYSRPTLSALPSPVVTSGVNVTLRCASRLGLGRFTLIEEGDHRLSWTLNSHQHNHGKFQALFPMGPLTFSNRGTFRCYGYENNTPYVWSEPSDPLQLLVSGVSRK

Positions count from the first letter of the chain named. Numbers in names are those of the source. Results are given in words; binding and its absence hold for the method and conditions named. For some of these results: Binding seen in cells or lysates may run through a third protein. Some entries that bind do so weakly or less than the wild type. For some of these results: Sequences can lack the tags named with a protein.

One test addresses HA-BST2 WT (human) (UniProt Q10589). Kind of test: co-IP.
The next test addresses bacILT7 24-223 (human, UniProt P59901 24-223, fluorescent label (Protein Labeling Kit RED-NHS)). In words: MST.
Test [1] addresses T1, HA-BST2 WT (human), Q10589.
T1 chain: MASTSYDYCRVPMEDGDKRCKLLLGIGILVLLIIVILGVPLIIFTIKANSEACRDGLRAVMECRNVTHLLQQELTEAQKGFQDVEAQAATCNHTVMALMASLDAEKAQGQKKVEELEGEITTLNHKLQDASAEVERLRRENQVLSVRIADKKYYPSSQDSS
In words: co-IP. To be noted: remark: other sources report otherwise.

Regarding “Myc-BST2 R136A (from UniProt Q10589 1-161)”, the binding entry with HA-BST2 WT (human) is reported as “binds”.

B1: BST2 ectodomain (residues 47 to 159) D129A (domain or fragment, human, UniProt Q10589 47-159, looked up)
chain: KANSEACRDGLRAVMECRNVTHLLQQELTEAQKGFQDVEAQAATCNHTVMALMASLDAEKAQGQKKVEELEGEITTLNHKLQAASAEVERLRRENQVLSVRIADKKYYPSSQD
On to B1, for which the binding result with bacILT7 24-223 is on record as “no binding”.

B2: BST2 ectodomain (residues 47 to 159) R136A (domain or fragment, human, UniProt Q10589 47-159, looked up)
chain: B1 chain with A83D, R90A
As to B2, in the test with bacILT7 24-223, the binding result is on record as “no binding”.

B3: HA-BST2 WT, Q10589 1-161 (protein)
chain: T1 chain
On to B3, for which the binding entry in test [1] is “binds”.
